According to patent US9273003B2, “Methods of treating lymphoma and rheumatoid arthritis with cyclopentyl (2S)-cyclohexyl[({6-[3-(hydroxyamino)-3-oxopropyl]pyridin-3-yl}methyl)amino]acetate” (GlaxoSmithKline Intellectual Property Development Limited, priority 2006, dated 2016):
At least one compound was matched to its structure with a doubt left.

Molecular target: histone deacetylase activity (HeLa nuclear extract)
Experiment: HDAC fluorescent activity assay (Fluor de Lys, Biomol)
Assay type: biochemical
Conditions: IC50 allocated to ranges
Method: The ability of compounds to inhibit histone deacetylase activities was measured using the commercially available HDAC fluorescent activity assay from Biomol. In brief, the Fluor de Lys™ substrate, a lysine with an epsilon-amino acetylation, is incubated with the source of histone deacetylase activity (HeLa nuclear extract) in the presence or absence of inhibitor. Deacetylation of the substrate sensitises the substrate to Fluor de Lys™ developer, which generates a fluorophore. Thus, incubation of the substrate with a source of HDAC activity results in an increase in signal that is diminished in the presence of an HDAC inhibitor.
Data are expressed as a percentage of the control, measured in the absence of inhibitor, with background signal being subtracted from all samples, as follows: % activity=[(S^i−B)/(S^o−B)]×100 where S^i is the signal in the presence of substrate, enzyme and inhibitor, S^o is the signal in the presence of substrate, enzyme and the vehicle in which the inhibitor is dissolved, and B is the background signal measured in the absence of enzyme.
IC50 values were determined by non-linear regression analysis, after fitting the results of eight data points to the equation for sigmoidal dose response with variable slope (% activity against log concentration of Compound), using Graphpad Prism software.
Histone deacetylase activity from crude nuclear extract derived from HeLa cells was used for screening. The preparation, purchased from 4C (Seneffe, Belgium), was prepared from HeLa cells harvested whilst in exponential growth phase. The nuclear extract was prepared according to the methodology described by J. D. Dignam, Nucl. Acid. Res., 1983, 11, 1475-1489, snap frozen in liquid nitrogen and stored at −80° C. The final buffer composition was 20 mM Hepes, 100 mM KCl, 0.2 mM EDTA, 0.5 mM DTT, 0.2 mM PMSF and 20% (v/v) glycerol.

| Compound | IC50 [nM] |
| --- | --- |
| COC(=O)[C@H](Cc1c[nH]c2ccccc12)NCc1ccc(/C=C/C(=O)NO)cc1 [Example 29, Methyl N-{4-[(1E)-3-(hydroxyamino)-3-oxoprop-1-en-1-yl]benzyl}-L-tryptophanate] | 101 to 1000 |
| CC(C)(C)OC(=O)[C@@H](NCc1cccc(CCC(=O)NO)c1)c1ccccc1 [Example 49, tert-Butyl (2S)-({3-[3-(hydroxyamino)-3-oxopropyl]benzyl}amino)(phenyl)acetate] | > 1000 |
| CC(C)(C)OC[C@H](NCc1ccc(CNCc2cccc(/C=C/C(=O)NO)c2)cc1)C(=O)OC1CCCC1 [Example 74, Cyclopentyl O-tert-butyl-N-{4-[({3-[(1E)-3-(hydroxyamino)-3-oxoprop-1-en-1-yl]benzyl}amino)methyl]benzyl}-L-serinate] | 101 to 1000 |
| O=C(/C=C/c1ccc(CN[C@H](C(=O)O)C2CCCCC2)cc1)NO [Example 88, (2S)-Cyclohexyl({4-[(1E)-3-(hydroxyamino)-3-oxoprop-1-en-1-yl]benzyl}amino)acetic acid] | < 100 |
| CC(C)C[C@H](NCc1ccc(CCC(=O)NO)cn1)C(=O)O [Example 111, N-({5-[3-(Hydroxyamino)-3-oxopropyl]pyridin-2-yl}methyl)-L-leucine] | > 1000 |
